For 6 molecules, binding results are on record in paper PMC2989921.

Results are given in words; binding and its absence hold for the method and conditions named. In cells and extracts the contact can be indirect. Binding can be weak; no strength is given. Tags and fused reporters may be left off the sequences shown.

B1: 468-Ynd1 (Ynd1 with an N-terminal deletion of amino acids 1-467) (domain or fragment, UniProt P40009 468-630)
chain: SERRTKLTGKKFIPGKLLESDQLRKQSSSLSNKGFLMWFAIICCIFYLIFHRSHIIRRRFSGLYNITKDFKTGIRRRLKFLRRSDPFSRLEEGELGTDVDGFKDVYRMKSSSMFDLGKSSATMQREHEPQRTASQSANLAPSNLRPAFSMADFSKFKDSRLYD
B2: 371-Ynd1 (Ynd1 with an N-terminal deletion of amino acids 1-370) (domain or fragment, UniProt P40009 371-630)
chain: NWTQILANSDKGVYNSIPENFLKDACFKGNWVLNILHEGFDMPRIDVDAENVNDRPLFQSVEKVEERELSWTLGRILLYASGSILAGNDDFMVGIAPSERRTKLTGKKFIPGKLLESDQLRKQSSSLSNKGFLMWFAIICCIFYLIFHRSHIIRRRFSGLYNITKDFKTGIRRRLKFLRRSDPFSRLEEGELGTDVDGFKDVYRMKSSSMFDLGKSSATMQREHEPQRTASQSANLAPSNLRPAFSMADFSKFKDSRLYD
B3: 468-Ynd1-531 (Ynd1 lacking the N-terminal 467 residues and the C-terminal 99 amino acids) (domain or fragment, UniProt P40009 468-531)
chain: SERRTKLTGKKFIPGKLLESDQLRKQSSSLSNKGFLMWFAIICCIFYLIFHRSHIIRRRFSGLY
B4: 518-Ynd1 (cytosolic tail of Ynd1, amino acids 518-630) (domain or fragment, UniProt P40009 518-630)
chain: HRSHIIRRRFSGLYNITKDFKTGIRRRLKFLRRSDPFSRLEEGELGTDVDGFKDVYRMKSSSMFDLGKSSATMQREHEPQRTASQSANLAPSNLRPAFSMADFSKFKDSRLYD
B5: 371-Ynd1-531 (Ynd1 lacking the N-terminal 370 residues and the C-terminal 99 amino acids) (domain or fragment, UniProt P40009 371-531)
chain: NWTQILANSDKGVYNSIPENFLKDACFKGNWVLNILHEGFDMPRIDVDAENVNDRPLFQSVEKVEERELSWTLGRILLYASGSILAGNDDFMVGIAPSERRTKLTGKKFIPGKLLESDQLRKQSSSLSNKGFLMWFAIICCIFYLIFHRSHIIRRRFSGLY
B6: WT Ynd1 (Golgi apyrase Ynd1), Myc- and HA-tagged (protein, UniProt P40009 1-630)
chain: MLIENTNDRFGIVIDAGSSGSRIHVFKWQDTESLLHATNQDSQSILQSVPHIHQEKDWTFKLNPGLSSFEKKPQDAYKSHIKPLLDFAKNIIPESHWSSCPVFIQATAGMRLLPQDIQSSILDGLCQGLKHPAEFLVEDCSAQIQVIDGETEGLYGWLGLNYLYGHFNDYNPEVSDHFTFGFMDMGGASTQIAFAPHDSGEIARHRDDIATIFLRSVNGDLQKWDVFVSTWLGFGANQARRRYLAQLINTLPENTNDYENDDFSTRNLNDPCMPRGSSTDFEFKDTIFHIAGSGNYEQCTKSIYPLLLKNMPCDDEPCLFNGVHAPRIDFANDKFIGTSEYWYTANDVFKLGGEYNFDKFSKSLREFCNSNWTQILANSDKGVYNSIPENFLKDACFKGNWVLNILHEGFDMPRIDVDAENVNDRPLFQSVEKVEERELSWTLGRILLYASGSILAGNDDFMVGIAPSERRTKLTGKKFIPGKLLESDQLRKQSSSLSNKGFLMWFAIICCIFYLIFHRSHIIRRRFSGLYNITKDFKTGIRRRLKFLRRSDPFSRLEEGELGTDVDGFKDVYRMKSSSMFDLGKSSATMQREHEPQRTASQSANLAPSNLRPAFSMADFSKFKDSRLYD

This test addresses adenovirus E4 open reading frame 4 (E4orf4) protein (adenovirus (serotype not given)). The test is described as follows: co-IP; E4orf4 immunoprecipitated from extracts of ynd1Δ yeast cells co-expressing the Ynd1 constructs; lysis and IP buffer 250 mM NaCl, 50 mM Tris-HCl pH 7.4, 5 mM EDTA, 0.5% Nonidet P-40, 0.1% Triton X-100; immune complexes and input (10% of IP) analysed by Western blot. A general note: In western blotting, separated proteins are transferred to a membrane and probed.
Regarding B1, the binding result is “binds”.
In the case of B2 it was “binds”; in that of B3, “binds weakly”; in that of B4, “binds”.
Then B5, with “binds weakly”.
Consider B6, for which the binding result was “binds”.
